The structures appear in SMILES notation. Counter-ions that a name gives are not always drawn. The list shows a part of the results. Baselines shift from plate to plate; read single values as rough.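 A K-12 lab model strain is cultured statically in 96-well plates; biofilm is measured as the absorbance of crystal violet stain retained in the wells. Drugs counted as candidate specific biofilm blockers if they strongly reduced staining while slowing planktonic growth by under 70%.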

The subject of the test is Escherichia coli W3110. Kind of test: biofilm formation (crystal violet staining) relative to untreated control; higher = more biofilm. The conditions noted are these: 10 µM; 20-24 h; 30 °C; TB.
In turn, `CNS(=O)(=O)Cc1ccc2[nH]cc(CCN(C)C)c2c1` [Sumatriptan succinate] registered a biofilm formation of 52%.
With `N[C@@H]1CCCCN(c2c(F)cc3c(=O)c(C(=O)O)cn(C4CC4)c3c2Cl)C1` [Besifloxacin hydrochloride] the figure was 21%; with `CC[C@H]1OC(=O)[C@H](C)[C@@H](O[C@H]2C[C@@](C)(OC)[C@@H](O)[C@H](C)O2)[C@H](C)[C@@H](O[C@@H]2O[C@H](C)C[C@H](N(C)C)[C@H]2O)[C@](C)(OC)C[C@@H](C)C(=O)[C@H](C)[C@@H](O)[C@]1(C)O` [Clarithromycin], 57%.
In the case of `CCOc1ccccc1OCC1CNCCO1` (centres undefined) [Viloxazine hydrochloride], the biofilm formation turned out to be 69%.
Consider `CCCCC1=NC2(CCCC2)C(=O)N1Cc1ccc(-c2ccccc2-c2nnn[nH]2)cc1` [Irbesartan], for which the biofilm formation stood at 78%.
With `CCCCOC(=O)c1ccc(N)cc1` [Butamben] the figure was 86%; with `N=C(N)NC(=O)c1nc(Cl)c(N)nc1N` [Amiloride hydrochloride dihydrate], 81%.
With `O=C1NCN(c2ccccc2)C12CCN(CCCC(c1ccc(F)cc1)c1ccc(F)cc1)CC2` [Fluspirilen] the figure was 46%; with `CC(C)(C)C(=O)OCOC(=O)[C@@H]1N2C(=O)[C@@H](NC(=O)[C@H](N)c3ccccc3)[C@H]2SC1(C)C` [Pivampicillin], 86%; with `CCCCC(CC)CN1CN(CC(CC)CCCC)CC(C)(N)C1` (centres undefined) [Hexetidine], 79%.
The compound `COc1cc2c(cc1OC)C(=O)C(CC1CCN(Cc3ccccc3)CC1)C2` (centres undefined) [Donepezil hydrochloride] came in with a biofilm formation of 64%.
As to `O=C(CCCN1CCC(O)(c2ccc(Br)cc2)CC1)c1ccc(F)cc1` [Bromperidol], the biofilm formation was 90%.
On to `CO[C@@]1(NC(=O)Cc2cccs2)C(=O)N2C(C(=O)O)=C(COC(N)=O)CS[C@@H]21` [Cefoxitin sodium salt], for which the biofilm formation was 15%.
As for `CC(=O)c1ccc2c(c1)N(CCCN1CCC(CCO)CC1)c1ccccc1S2` [Piperacetazine], the figure is 62%.
Regarding `COc1cc(Cc2cnc(N)nc2N)cc(OC)c1OC` [Trimethoprim], the biofilm formation amounted to 30%.
`COCC1=C(C(=O)OC(C)OC(=O)OC(C)C)N2C(=O)[C@@H](NC(=O)/C(=N\OC)c3csc(N)n3)[C@H]2SC1` (some centres undefined) [Cefpodoxime proxetil] returned a biofilm formation of 86%.
With `CCN(CC)CCOC(=O)C(c1ccccc1)C1CCCCC1` (centres undefined) [Drofenine hydrochloride] the figure was 80%.
As for `Cn1c(=O)c2[nH]cnc2n(C)c1=O` [Aminophylline], the figure is 81%; as for `CS(=O)(=O)c1ccc(C2=C(c3ccccc3)C(=O)OC2)cc1` [Rofecoxib], 84%; as for `Cc1ccnc2c1NC(=O)c1cccnc1N2C1CC1` [Nevirapine], 77%.
As for `CN(C)CCC=C1c2ccccc2CCc2ccccc21` [Amitryptiline hydrochloride], the figure is 100%; as for `Cc1[nH]c(=O)c(C#N)cc1-c1ccncc1` [Milrinone], 71%; as for `C[C@]12CC[C@H]3C(=CCc4cc(O)ccc43)[C@@H]1CCC2=O` [Equilin], 75%.
On to `C=C[C@H]1CN2CC[C@H]1C[C@@H]2[C@@H](O)c1ccnc2ccc(OC)cc12` [Quinidine hydrochloride monohydrate], for which the biofilm formation amounted to 58%.
Compound `Cc1cccc(C)c1NC(=O)C1CCCCN1C` (centres undefined) [Mepivacaine hydrochloride] showed a biofilm formation of 62%.
With `CN1C(C(=O)Nc2ccccn2)=C(O)c2sccc2S1(=O)=O` [Tenoxicam] the figure was 72%; with `Cc1ncc([N+](=O)[O-])n1CC(O)CCl` (centres undefined) [Ornidazole], 77%.
`CO[C@H]1C[C@H](O[C@H]2[C@H](C)[C@@H](O[C@@H]3O[C@H](C)C[C@H](N(C)C)[C@H]3OC(C)=O)[C@@H](C)C[C@@]3(CO3)C(=O)[C@H](C)[C@@H](OC(C)=O)[C@@H](C)[C@@H](C)OC(=O)[C@@H]2C)O[C@@H](C)[C@@H]1OC(C)=O` [Troleandomycin]: the biofilm formation was 54%.
As for `Cc1cc(C(=O)NNCc2ccccc2)no1` [Isocarboxazid], the biofilm formation was 77%.
As for `Cn1c(=O)c2c(ncn2CC(=O)O)n(C)c1=O` [Acefylline], the figure is 50%; as for `CN(C)CC/C=C1\c2ccccc2CSc2ccccc21` [Dosulepin hydrochloride], 85%.
Take `CC(C)(Oc1ccc(Cl)cc1)C(=O)O` [Clofibric acid]: the biofilm formation worked out at 73%.
On to `Nc1c(Br)cc(Br)cc1CN[C@H]1CC[C@H](O)CC1` [Ambroxol hydrochloride], for which the biofilm formation is 45%.
As for `Cn1ccnc1S` [Methimazole], the figure is 78%; as for `CC(C)(Sc1cc(C(C)(C)C)c(O)c(C(C)(C)C)c1)Sc1cc(C(C)(C)C)c(O)c(C(C)(C)C)c1` [Probucol], 93%.
`CCN1C(=O)NC(c2ccccc2)C1=O` (centres undefined) [Ethotoin] registered a biofilm formation of 66%.
As for `CN1CCC(=C2c3ccccc3CC(=O)c3sccc32)CC1` [Ketotifen fumarate], the figure is 83%; as for `CN1CCCC(CC2c3ccccc3Sc3ccccc32)C1` (centres undefined) [Metixene hydrochloride], 97%.
With `COc1ccccc1N1CCN(CC(O)COc2cccc3ccccc23)CC1` (centres undefined) [Naftopidil dihydrochloride] the figure was 67%; with `COc1ccc2c(c1)N(C[C@H](C)CN(C)C)c1ccccc1S2` [Methotrimeprazine maleat salt], 81%.
With `CCCN(CCC)C(=O)C(CCC(=O)O)NC(=O)c1ccccc1` (centres undefined) [Proglumide] the figure was 108%; with `COc1cc(OC)c(C(=O)CCCN2CCCC2)c(OC)c1` [Buflomedil hydrochloride], 66%.
Regarding `N#CC(c1ccc(Cl)cc1)c1c(Cl)cc(-n2ncc(=O)[nH]c2=O)cc1Cl` (centres undefined) [Diclazuril], the biofilm formation was determined as 104%.
With `CCC(Cc1c(I)cc(I)c(N)c1I)C(=O)O` (centres undefined) [Iopanoic acid] the figure was 87%; with `CCC(NC(C)C)C(O)c1ccc(O)c(O)c1` (centres undefined) [Isoetharine mesylate salt], 62%; with `CN1CCc2cccc3c2[C@H]1Cc1ccc(O)c(O)c1-3` [R(-) Apomorphine hydrochloride hemihydrate], 12%.
As for `CO[C@@]1(NC(=O)CSCC#N)C(=O)N2C(C(=O)O)=C(CSc3nnnn3C)CS[C@@H]21` [Cefmetazole sodium salt], the figure is 11%; as for `C[C@@H]1[C@H](O)[C@@H](C)/C=C/C=C/C=C/C=C/C=C/C=C/C=C/[C@H](O[C@@H]2O[C@H](C)[C@@H](O)[C@H](N)[C@@H]2O)C[C@@H]2O[C@](O)(C[C@@H](O)C[C@@H](O)[C@H](O)CC[C@@H](O)C[C@@H](O)CC(=O)O[C@H]1C)C[C@H](O)[C@H]2C(=O)O` [Amphotericin B], 75%.
In the case of `CCOC(=O)C(C)(C)Oc1ccc(Cl)cc1` [Clofibrate], the biofilm formation was found to be 107%.
The compound `CC(C)NC[C@H](O)COc1ccc(CC(N)=O)cc1` [(S)-(-)-Atenolol] gave a biofilm formation of 58%.
As for `CC(C)(S)C(N)C(=O)O` (racemic) [D,L-Penicillamine], the figure is 68%; as for `CC(=O)N(O)CCCCCNC(=O)CCC(=O)N(O)CCCCCNC(=O)CCC(=O)N(O)CCCCCN` [Deferoxamine mesylate], 103%; as for `CC(C)/N=c1\cc2n(-c3ccc(Cl)cc3)c3ccccc3nc-2cc1Nc1ccc(Cl)cc1` [Clofazimine], 49%.
With `O=C1Cc2cc(CCN3CCN(c4nsc5ccccc45)CC3)c(Cl)cc2N1` [Ziprasidone Hydrochloride] the figure was 108%; with `CCN[C@H]1C[C@H](C)S(=O)(=O)c2sc(S(N)(=O)=O)cc21` [Dorzolamide hydrochloride], 93%; with `O=c1cc(-c2ccc(O)c(O)c2)oc2cc(O)cc(O)c12` [Luteolin], 75%.
As for `CC(C)(C(=O)c1cccnc1)c1cccnc1` [Metyrapone], the figure is 54%.
The compound `Cc1cc(=O)n(-c2ccccc2)n1C` [Antipyrine] yielded a biofilm formation of 70%.
`Clc1ccc(COC(Cn2ccnc2)c2ccc(Cl)cc2Cl)c(Cl)c1` (centres undefined) [Miconazole] had a biofilm formation of 46%.
As for `NC12CC3CC(CC(C3)C1)C2` [Adamantamine fumarate], the figure is 86%; as for `Cc1ccc(-c2ncc(Cl)cc2-c2ccc(S(C)(=O)=O)cc2)cn1` [Etoricoxib], 100%; as for `CC1CCc2c(N3CCC(O)CC3)c(F)cc3c(=O)c(C(=O)O)cn1c23` (centres undefined) [Nadifloxacin], 26%.
On to `C[C@@H]1NC(=O)NC1=O` [Methylhydantoin-5-(L)], for which the biofilm formation stood at 72%.
As for `CN1CCN(C2=Nc3cc(Cl)ccc3Nc3ccccc32)CC1` [Clozapine], the figure is 83%; as for `CC(Oc1ccccc1)C(=O)N[C@@H]1C(=O)N2[C@@H]1SC(C)(C)[C@@H]2C(=O)O` (some centres undefined) [Phenethicillin potassium salt], 91%; as for `COc1ccc(C(=O)NCc2ccc(OCCN(C)C)cc2)cc1OC` [Itopride], 97%.
`N[C@@H](C(=O)N[C@@H]1C(=O)N2C(C(=O)O)=C(Cl)CS[C@H]12)c1ccccc1` [Cefaclor hydrate] showed a biofilm formation of 59%.
With `O=C1c2ccccc2S(=O)(=O)N1CCCCN1CCN(c2ncccn2)CC1` [Ipsapirone] the figure was 74%.
As for `Cn1c([N+](=O)[O-])cnc1COC(N)=O` [Ronidazole], the figure is 100%; as for `CN(C)[C@@H]1C(O)=C(C(N)=O)C(=O)[C@@]2(O)C(O)=C3C(=O)c4c(O)ccc(Cl)c4[C@@H](O)[C@H]3C[C@@H]12` [Demeclocycline hydrochloride], 15%; as for `COc1ccc(C[C@@H]2c3cc(OC)c(OC)cc3CC[N@+]2(C)CCC(=O)OCCCCCOC(=O)CC[N@@+]2(C)CCc3cc(OC)c(OC)cc3[C@H]2Cc2ccc(OC)c(OC)c2)cc1OC` [Cisatracurium besylate], 99%.
With `Nc1cc(-c2ccncc2)c[nH]c1=O` [Amrinone] the figure was 103%.
For `CC(N)C12CC3CC(CC(C3)C1)C2` (centres undefined) [Rimantadine Hydrochloride], the biofilm formation was determined as 62%.
`CN(CCOc1ccc(CC2SC(=O)NC2=O)cc1)c1ccccn1` (centres undefined) [Rosiglitazone Hydrochloride] gave a biofilm formation of 101%.

For the origin of these results see the supplement of paper PMC7580552.
